These are yes or no findings as the source states them, for the method shown. In cells and extracts the contact can be indirect. Some results given as binding are weak or reduced against the parent protein; the word gives no strength.
Columns and labels:
Assay in all cases: cross-linking + co-IP; wild-type BW25113 cells cross-linked with DSP; membrane extract (1% Triton X-100, 1 M NaCl) precipitated with antibodies against PBP1A, PBP1B, PBP3 or ZipA on protein G agarose; cross-link reversed, ZipA or FtsN detected by western blot
[1] = target: T1, PBP1A (endogenous) (E. coli (endogenous in BW25113)) (UniProt P02918)
T1 sequence: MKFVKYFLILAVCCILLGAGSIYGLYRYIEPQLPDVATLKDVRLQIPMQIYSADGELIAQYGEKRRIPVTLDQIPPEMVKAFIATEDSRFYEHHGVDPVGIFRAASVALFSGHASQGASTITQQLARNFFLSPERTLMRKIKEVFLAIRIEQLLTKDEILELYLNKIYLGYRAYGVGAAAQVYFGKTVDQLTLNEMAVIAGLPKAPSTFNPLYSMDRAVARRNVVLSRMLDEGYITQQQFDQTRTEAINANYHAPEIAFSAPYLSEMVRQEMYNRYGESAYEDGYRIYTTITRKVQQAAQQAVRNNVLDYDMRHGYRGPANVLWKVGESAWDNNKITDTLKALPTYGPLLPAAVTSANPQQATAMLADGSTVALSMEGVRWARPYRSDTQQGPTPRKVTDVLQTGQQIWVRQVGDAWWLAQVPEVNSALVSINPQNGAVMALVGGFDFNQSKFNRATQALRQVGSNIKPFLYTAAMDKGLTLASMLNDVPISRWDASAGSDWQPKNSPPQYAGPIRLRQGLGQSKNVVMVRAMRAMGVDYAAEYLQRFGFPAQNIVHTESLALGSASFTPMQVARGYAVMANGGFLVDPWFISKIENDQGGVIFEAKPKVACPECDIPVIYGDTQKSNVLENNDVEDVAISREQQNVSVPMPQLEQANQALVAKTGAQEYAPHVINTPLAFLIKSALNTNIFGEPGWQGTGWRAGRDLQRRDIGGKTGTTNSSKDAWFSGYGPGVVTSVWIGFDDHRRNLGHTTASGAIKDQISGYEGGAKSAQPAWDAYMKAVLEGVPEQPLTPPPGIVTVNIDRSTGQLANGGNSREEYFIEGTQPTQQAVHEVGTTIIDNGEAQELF

[2] = target: T2, PBP1B (endogenous) (E. coli (endogenous in BW25113)) (UniProt P02919)
T2 sequence: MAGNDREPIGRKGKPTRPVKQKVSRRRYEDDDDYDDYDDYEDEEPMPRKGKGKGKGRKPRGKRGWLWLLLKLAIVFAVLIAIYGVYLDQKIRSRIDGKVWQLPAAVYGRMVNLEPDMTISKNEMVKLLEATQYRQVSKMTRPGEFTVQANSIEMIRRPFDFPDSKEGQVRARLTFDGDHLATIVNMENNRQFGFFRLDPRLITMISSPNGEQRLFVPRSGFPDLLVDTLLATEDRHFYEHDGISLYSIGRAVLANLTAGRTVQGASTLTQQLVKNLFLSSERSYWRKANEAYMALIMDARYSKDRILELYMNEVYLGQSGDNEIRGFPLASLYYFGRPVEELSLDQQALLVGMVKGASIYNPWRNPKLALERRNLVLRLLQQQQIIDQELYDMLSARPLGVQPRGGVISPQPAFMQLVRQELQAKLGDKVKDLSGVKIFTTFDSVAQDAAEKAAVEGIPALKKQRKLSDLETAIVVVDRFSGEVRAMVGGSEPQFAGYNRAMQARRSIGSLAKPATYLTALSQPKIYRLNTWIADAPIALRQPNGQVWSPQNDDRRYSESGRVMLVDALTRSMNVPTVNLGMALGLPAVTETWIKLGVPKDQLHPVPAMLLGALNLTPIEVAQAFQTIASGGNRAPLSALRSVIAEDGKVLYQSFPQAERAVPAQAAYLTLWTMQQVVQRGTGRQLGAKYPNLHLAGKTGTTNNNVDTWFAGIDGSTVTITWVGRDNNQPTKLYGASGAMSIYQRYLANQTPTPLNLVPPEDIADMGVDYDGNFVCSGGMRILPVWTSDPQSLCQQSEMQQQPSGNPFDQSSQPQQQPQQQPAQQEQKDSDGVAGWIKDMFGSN

[3] = target: T3, PBP3 (endogenous) (E. coli (endogenous in BW25113)) (UniProt P0AD68)
T3 sequence: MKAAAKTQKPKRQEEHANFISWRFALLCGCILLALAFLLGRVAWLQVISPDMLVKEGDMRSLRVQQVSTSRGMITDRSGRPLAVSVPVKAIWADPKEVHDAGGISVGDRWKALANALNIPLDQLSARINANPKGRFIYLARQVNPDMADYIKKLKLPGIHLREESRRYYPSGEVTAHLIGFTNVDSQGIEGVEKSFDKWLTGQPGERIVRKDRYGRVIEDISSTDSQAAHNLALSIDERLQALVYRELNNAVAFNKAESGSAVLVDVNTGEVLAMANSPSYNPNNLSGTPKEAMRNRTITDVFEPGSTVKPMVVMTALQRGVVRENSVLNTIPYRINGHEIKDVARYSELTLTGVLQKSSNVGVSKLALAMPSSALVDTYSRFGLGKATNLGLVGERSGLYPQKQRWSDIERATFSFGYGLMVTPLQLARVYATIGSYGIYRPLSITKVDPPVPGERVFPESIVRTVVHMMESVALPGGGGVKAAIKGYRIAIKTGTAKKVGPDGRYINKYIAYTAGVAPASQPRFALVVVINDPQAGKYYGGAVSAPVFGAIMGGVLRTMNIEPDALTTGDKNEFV

Measured: binding

ZipA (endogenous) (from UniProt P77173 1-328)
binds: all assays above

From PMC6269477
